In the supplement of paper PMC7877785:
± gives the uncertainty stated by the source. The uncertainty is large for many entries.

Assay: self-splicing fitness, log relative to wild type (ln ratio); higher = more splicing; Tetrahymena group I intron in knt gene, E. coli kanamycin selection, DiMSum; sequences stand for … in CUCUCU…GGAGGGAAAAGUUAUCAGGCAUGCACCUGGUAGCUAGUCUUUAAACCAAUAGAUUGCAUCGGUUUAAAAGGCAAGACCGUCAAAUUGCGGGAAAGGGGUCAACAGCCGUUCAGUACCAAGUCUCAGGGGAAACUUUGAGAUGGCCUUGCAAAGGGUAUGGUAAUAAGCUGACGGACAUGGUCCUAACCACGCAGCCAAGUCCUAAGUCAACAGAUCUUCUGUUGAUAUGGAUGCAGUUCACAGACUAAAUGUCGGUCGGGGAAGAUGUAUUCUUCUCAUAAGAUAUAGUCGGACCUCUCCUUAAUGGGAGCUAGCGGAUGAAGUGAUGCAACACUGGAGCCGCUGGGAACUAAUUUGUAUGCGAAAGUAUAUUGAUUAGUUUUGGAGUACUCGUGGUCG
Outline: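 The eight P1ex-region nucleotides of an intron in the knt kanamycin-resistance gene on pET-22b(+) were all randomised and the library put into E. coli BL21(DE3). Six replicate transformations were grown overnight at 37°C or 30°C on LB agar with or without 25 μg/mL kanamycin, together with 100 μg/mL carbenicillin, 50 μM IPTG and 0.2% rhamnose. Colonies were pooled and amplicon-sequenced on an Illumina HiSeq 2500. Fitness from DiMSum is the error-weighted combination of wild-type-normalised replicate fold changes, kanamycin over none.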

Sequence	self-splicing fitness (ln) (37 °C)	self-splicing fitness (ln) (30 °C)
CCGCAGCAAUAUUACGGCCC	-0.95 ± 0.73	–
CUAGAGCAAUAUUACGGAAC	-2.3 ± 0.55	–
CCGUAGCAAUAUUACGACCC	–	-3.35 ± 1
UCUGAGCAAUAUUACGAGAA	-2.03 ± 0.52	-2.29 ± 0.55
CCAUAGCAAUAUUACGUAAC	–	-4.77 ± 0.59
CAAGAGCAAUAUUACGACAC	-1.4 ± 0.53	-3.27 ± 0.74
CCCUAGCAAUAUUACGACCC	-1.54 ± 0.7	-3.96 ± 1
CAUUAGCAAUAUUACGGCCA	-2.75 ± 0.54	–
GCGAAGCAAUAUUACGGACG	-0.969 ± 0.2	-0.0597 ± 0.13
GGGUAGCAAUAUUACGCGCC	-0.792 ± 0.54	-2.85 ± 0.79
UGUGAGCAAUAUUACGUCAC	-3.42 ± 1	–
GUCGAGCAAUAUUACGCCUG	0.207 ± 0.9	-3.21 ± 1.1
AAGGAGCAAUAUUACGCCAU	–	-3.54 ± 0.73
CCCAAGCAAUAUUACGCAUG	-2.34 ± 0.22	-3.29 ± 0.2
UUCGAGCAAUAUUACGCCCC	–	-2.57 ± 0.66
GCGGAGCAAUAUUACGAGAC	-2.83 ± 0.53	–
AGUUAGCAAUAUUACGAUUA	–	-1.12 ± 0.84
GCUAAGCAAUAUUACGAUAA	-1.1 ± 0.17	-1.88 ± 0.17
AAUGAGCAAUAUUACGCGUG	-0.949 ± 0.1	-2.11 ± 0.11
CGAUAGCAAUAUUACGCCCG	-1.44 ± 0.25	-1.39 ± 0.18
GAUGAGCAAUAUUACGCGGC	–	-3.01 ± 0.59
UAUUAGCAAUAUUACGUGCA	-0.986 ± 0.16	-0.96 ± 0.16
GUCGAGCAAUAUUACGAGAG	-3.91 ± 0.72	-4.41 ± 0.72

Shown as comma-separated lines: entries from further up.
Sequence,self-splicing fitness (ln) (37 °C),self-splicing fitness (ln) (30 °C)
UUCGAGCAAUAUUACGCCCC,–,-2.57 ± 0.66
CGAUAGCAAUAUUACGCCCG,-1.44 ± 0.25,-1.39 ± 0.18

Carrying on:

Sequence	self-splicing fitness (ln) (37 °C)	self-splicing fitness (ln) (30 °C)
GGAGAGCAAUAUUACGCUGC	-1.9 ± 0.65	-3.55 ± 0.54
UAUAAGCAAUAUUACGCUAA	-2.34 ± 0.62	-0.69 ± 0.54
CUCAAGCAAUAUUACGGCCC	-0.47 ± 0.68	–
UUUGAGCAAUAUUACGACGC	-2.52 ± 0.63	-4.33 ± 1
UACGAGCAAUAUUACGAGCC	-2.27 ± 0.63	-4.29 ± 1.1
GCGCAGCAAUAUUACGGCGU	-2.29 ± 0.51	–
CGUUAGCAAUAUUACGAAAC	–	-4.03 ± 0.6
UGGUAGCAAUAUUACGAUAC	-1.97 ± 0.52	-2.81 ± 1.1
AGACAGCAAUAUUACGAGAC	-1.59 ± 0.37	-2.31 ± 0.58
CGUAAGCAAUAUUACGGCUC	–	-2.57 ± 0.58
GUGUAGCAAUAUUACGCUGC	-1.08 ± 0.23	-3.26 ± 0.27
UCGCAGCAAUAUUACGCCAC	-2.56 ± 0.76	-2.23 ± 0.51
UCCUAGCAAUAUUACGCUCG	-2.89 ± 0.75	–
UCAGAGCAAUAUUACGACCU	-3.04 ± 0.75	–
CUGGAGCAAUAUUACGAGGC	-0.672 ± 0.47	-2.02 ± 0.4
CUCCAGCAAUAUUACGCAUA	–	-3.55 ± 0.54
UGUUAGCAAUAUUACGAGUC	-3.24 ± 0.6	–
CCUGAGCAAUAUUACGACCU	-3.34 ± 1	-2.65 ± 0.79
GCCGAGCAAUAUUACGAUCC	-0.785 ± 0.93	-0.829 ± 0.68
CCCAAGCAAUAUUACGCAUC	–	-4.93 ± 0.71
UUGUAGCAAUAUUACGUUUC	-2.8 ± 0.53	–
AUAGAGCAAUAUUACGAGAG	-1.86 ± 0.52	-3.61 ± 0.6
UAAUAGCAAUAUUACGAUUC	–	-4.17 ± 0.51
